Reference: paper PMC5919408
Results are given in words; binding and its absence hold for the method and conditions named. Binding seen in cells or lysates may run through a third protein. A yes stands for co-enrichment or nearness to the bait. Other partners may have been found.

Sequences of proteins named here, by UniProt entry; tags and fusion partners are left off.
UniProt P35169: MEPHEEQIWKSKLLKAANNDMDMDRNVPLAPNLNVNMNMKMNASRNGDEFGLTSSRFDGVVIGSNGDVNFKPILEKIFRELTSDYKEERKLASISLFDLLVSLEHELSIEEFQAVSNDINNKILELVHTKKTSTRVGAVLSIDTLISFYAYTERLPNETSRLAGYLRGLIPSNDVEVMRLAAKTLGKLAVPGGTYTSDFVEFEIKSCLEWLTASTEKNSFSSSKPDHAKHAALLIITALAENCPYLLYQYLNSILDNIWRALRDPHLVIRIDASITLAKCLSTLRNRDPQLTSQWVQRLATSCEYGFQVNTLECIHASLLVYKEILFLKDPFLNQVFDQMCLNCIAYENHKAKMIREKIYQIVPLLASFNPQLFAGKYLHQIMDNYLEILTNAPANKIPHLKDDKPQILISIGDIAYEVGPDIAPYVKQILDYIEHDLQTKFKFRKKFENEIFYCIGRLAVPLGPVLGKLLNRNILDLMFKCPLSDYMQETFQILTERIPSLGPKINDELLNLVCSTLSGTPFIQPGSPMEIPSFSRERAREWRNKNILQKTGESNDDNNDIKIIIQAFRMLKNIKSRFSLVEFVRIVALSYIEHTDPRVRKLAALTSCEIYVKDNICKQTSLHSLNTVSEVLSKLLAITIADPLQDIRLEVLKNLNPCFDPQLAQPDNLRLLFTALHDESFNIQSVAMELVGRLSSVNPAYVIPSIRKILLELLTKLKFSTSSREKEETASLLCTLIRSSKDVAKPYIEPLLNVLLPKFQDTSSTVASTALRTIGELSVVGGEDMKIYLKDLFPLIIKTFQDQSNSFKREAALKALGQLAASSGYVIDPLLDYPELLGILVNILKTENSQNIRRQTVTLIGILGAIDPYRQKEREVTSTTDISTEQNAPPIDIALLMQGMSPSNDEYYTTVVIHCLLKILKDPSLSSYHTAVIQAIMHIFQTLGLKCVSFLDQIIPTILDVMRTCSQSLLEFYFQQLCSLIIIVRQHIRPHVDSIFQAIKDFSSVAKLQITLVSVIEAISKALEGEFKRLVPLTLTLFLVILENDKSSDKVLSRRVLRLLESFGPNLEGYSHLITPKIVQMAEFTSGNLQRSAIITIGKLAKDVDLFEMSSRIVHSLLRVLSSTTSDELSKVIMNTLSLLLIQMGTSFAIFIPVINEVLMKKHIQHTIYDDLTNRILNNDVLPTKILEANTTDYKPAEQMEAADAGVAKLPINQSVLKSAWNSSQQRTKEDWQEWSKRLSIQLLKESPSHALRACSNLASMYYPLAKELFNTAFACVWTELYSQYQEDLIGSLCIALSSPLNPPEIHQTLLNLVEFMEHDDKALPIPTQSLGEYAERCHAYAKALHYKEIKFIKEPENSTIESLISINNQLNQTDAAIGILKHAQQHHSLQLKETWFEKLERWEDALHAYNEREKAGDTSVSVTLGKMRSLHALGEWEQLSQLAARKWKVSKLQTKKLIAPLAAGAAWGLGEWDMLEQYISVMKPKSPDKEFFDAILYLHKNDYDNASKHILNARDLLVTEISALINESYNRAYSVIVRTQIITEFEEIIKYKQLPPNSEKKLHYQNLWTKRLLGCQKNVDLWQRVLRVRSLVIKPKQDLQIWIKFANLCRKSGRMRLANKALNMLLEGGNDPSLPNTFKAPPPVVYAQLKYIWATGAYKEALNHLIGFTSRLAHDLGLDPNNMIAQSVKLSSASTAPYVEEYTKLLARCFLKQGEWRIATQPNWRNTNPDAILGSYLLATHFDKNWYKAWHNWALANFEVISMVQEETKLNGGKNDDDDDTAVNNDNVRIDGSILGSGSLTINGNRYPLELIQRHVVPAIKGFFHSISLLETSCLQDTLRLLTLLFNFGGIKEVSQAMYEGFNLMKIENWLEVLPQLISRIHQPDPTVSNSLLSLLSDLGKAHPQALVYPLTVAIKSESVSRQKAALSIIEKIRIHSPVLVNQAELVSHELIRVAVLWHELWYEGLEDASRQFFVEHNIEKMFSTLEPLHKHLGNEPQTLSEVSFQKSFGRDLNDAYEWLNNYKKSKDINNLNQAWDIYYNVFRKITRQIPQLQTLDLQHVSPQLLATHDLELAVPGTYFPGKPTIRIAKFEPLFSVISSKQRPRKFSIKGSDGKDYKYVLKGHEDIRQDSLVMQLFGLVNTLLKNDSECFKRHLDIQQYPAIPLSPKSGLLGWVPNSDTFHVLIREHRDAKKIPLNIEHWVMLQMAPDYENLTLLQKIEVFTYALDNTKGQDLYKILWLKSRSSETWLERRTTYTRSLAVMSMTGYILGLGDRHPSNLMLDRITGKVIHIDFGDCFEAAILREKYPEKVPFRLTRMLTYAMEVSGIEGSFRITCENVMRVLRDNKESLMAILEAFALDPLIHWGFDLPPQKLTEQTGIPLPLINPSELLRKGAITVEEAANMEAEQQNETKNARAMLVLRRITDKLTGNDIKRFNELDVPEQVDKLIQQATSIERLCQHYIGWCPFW
UniProt P32600: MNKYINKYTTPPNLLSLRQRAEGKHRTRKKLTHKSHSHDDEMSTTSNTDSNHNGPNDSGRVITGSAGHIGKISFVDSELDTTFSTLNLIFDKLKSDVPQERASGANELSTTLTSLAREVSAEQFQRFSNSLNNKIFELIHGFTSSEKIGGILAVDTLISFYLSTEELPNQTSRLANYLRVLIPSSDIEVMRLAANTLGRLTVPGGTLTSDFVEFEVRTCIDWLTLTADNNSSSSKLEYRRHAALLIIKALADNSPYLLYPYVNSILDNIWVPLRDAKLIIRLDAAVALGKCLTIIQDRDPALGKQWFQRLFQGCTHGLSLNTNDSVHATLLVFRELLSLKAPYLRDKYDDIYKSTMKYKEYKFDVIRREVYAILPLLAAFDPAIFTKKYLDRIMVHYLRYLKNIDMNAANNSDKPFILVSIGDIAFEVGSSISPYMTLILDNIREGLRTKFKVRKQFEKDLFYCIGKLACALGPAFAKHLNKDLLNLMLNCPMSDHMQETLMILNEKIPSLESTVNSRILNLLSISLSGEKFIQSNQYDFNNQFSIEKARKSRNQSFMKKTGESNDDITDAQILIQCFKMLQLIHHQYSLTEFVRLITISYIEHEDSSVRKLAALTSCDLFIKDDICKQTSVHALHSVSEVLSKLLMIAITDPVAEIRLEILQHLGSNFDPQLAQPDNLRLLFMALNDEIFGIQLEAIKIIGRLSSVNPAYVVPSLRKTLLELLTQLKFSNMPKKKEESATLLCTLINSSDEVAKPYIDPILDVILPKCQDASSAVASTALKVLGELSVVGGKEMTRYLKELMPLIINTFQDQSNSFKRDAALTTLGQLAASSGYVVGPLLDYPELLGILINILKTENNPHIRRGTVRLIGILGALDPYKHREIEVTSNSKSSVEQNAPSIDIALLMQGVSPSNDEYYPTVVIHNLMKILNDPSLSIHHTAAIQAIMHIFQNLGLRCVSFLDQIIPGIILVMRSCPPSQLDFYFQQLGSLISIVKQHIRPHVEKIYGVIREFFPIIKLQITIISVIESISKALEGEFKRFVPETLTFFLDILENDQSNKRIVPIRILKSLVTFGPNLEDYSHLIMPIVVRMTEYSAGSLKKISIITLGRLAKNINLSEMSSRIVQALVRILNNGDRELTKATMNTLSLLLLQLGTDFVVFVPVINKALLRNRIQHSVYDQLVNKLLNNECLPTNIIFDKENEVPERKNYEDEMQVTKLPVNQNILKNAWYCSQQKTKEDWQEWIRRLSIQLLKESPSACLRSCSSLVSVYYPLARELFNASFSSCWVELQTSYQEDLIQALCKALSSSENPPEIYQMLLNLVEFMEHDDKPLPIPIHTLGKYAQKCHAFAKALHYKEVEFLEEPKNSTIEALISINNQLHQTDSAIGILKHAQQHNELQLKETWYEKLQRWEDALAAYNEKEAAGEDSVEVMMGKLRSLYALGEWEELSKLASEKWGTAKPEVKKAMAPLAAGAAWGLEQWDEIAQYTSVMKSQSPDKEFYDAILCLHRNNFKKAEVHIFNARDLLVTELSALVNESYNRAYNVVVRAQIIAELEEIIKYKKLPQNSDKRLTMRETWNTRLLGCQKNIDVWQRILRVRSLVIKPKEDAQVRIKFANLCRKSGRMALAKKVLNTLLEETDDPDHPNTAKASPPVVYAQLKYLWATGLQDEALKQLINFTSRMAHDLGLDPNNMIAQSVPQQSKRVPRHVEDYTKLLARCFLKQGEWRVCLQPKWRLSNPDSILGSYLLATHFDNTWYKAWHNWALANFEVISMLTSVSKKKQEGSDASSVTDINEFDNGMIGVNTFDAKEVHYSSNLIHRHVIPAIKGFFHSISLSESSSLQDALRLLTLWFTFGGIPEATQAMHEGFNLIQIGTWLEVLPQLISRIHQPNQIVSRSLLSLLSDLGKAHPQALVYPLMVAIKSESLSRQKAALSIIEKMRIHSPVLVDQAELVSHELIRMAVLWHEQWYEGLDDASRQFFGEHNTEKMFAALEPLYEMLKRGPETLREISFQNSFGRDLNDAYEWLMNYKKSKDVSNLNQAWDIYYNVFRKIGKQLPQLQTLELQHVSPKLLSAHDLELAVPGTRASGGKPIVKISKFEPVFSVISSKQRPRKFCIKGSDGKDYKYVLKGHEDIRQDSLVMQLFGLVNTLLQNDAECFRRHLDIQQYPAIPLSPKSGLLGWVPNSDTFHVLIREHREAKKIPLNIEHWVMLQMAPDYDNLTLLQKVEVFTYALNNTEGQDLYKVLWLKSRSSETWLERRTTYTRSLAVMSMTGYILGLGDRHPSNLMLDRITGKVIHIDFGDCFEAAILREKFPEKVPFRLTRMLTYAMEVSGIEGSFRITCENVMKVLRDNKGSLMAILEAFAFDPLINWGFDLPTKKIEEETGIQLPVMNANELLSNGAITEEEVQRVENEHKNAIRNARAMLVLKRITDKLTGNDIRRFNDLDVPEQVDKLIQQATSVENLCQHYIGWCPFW
UniProt P38873: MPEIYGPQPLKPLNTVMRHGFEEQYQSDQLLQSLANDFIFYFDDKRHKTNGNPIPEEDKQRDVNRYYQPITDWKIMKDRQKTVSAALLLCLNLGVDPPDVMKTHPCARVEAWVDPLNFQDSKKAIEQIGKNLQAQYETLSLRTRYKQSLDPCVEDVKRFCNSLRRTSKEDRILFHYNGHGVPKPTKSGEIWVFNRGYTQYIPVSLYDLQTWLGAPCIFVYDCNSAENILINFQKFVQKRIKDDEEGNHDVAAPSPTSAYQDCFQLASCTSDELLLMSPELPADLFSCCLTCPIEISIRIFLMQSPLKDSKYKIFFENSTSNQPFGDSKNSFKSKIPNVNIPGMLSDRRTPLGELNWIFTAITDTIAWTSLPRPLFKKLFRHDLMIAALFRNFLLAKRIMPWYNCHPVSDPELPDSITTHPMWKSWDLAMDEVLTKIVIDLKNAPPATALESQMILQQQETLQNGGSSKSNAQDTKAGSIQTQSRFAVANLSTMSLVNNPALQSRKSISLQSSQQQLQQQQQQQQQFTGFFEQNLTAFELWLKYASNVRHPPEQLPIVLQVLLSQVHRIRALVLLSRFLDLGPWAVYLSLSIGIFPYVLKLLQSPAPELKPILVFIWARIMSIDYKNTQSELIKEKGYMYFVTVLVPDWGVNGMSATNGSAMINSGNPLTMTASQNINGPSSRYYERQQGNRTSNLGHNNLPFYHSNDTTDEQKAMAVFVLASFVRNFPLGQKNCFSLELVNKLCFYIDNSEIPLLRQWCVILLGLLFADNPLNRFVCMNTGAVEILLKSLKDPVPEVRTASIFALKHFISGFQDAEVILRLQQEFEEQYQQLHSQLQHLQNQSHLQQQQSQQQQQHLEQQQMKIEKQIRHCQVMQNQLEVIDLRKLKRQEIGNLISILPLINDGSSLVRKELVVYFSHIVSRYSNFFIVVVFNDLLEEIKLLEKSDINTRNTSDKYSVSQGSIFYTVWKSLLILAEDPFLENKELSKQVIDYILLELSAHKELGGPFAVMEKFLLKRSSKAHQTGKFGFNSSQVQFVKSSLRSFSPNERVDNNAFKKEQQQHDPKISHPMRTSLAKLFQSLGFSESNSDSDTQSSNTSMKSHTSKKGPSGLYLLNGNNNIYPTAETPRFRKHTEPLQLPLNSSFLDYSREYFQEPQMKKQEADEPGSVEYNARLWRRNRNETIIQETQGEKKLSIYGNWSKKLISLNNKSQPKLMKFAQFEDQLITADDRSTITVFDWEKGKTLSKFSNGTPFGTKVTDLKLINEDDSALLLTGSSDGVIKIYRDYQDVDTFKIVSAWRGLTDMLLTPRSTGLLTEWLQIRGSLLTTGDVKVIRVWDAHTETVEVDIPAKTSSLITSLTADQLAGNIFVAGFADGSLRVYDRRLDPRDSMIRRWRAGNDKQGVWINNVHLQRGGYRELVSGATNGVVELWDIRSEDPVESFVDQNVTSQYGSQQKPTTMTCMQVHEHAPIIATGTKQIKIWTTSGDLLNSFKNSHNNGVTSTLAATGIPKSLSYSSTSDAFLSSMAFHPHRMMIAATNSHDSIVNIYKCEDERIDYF

T1: TAP-Pib2 (S. cerevisiae) (UniProt P53191)
T1 sequence: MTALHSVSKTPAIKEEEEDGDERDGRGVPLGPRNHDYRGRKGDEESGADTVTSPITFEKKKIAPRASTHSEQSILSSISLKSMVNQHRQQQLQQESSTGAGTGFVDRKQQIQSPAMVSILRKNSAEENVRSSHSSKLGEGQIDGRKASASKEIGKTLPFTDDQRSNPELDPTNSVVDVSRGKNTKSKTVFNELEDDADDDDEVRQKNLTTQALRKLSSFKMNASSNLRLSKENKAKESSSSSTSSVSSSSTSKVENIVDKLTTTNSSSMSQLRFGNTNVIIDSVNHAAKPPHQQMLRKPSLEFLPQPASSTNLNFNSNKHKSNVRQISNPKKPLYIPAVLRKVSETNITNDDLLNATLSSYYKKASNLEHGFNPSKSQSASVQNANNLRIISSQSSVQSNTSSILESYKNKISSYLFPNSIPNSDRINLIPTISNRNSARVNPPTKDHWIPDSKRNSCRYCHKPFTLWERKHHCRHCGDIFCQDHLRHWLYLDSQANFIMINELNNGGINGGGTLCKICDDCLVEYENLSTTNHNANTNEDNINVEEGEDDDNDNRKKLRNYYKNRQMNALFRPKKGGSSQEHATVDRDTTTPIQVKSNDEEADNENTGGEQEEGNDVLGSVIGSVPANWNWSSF


The molecules below were run against T1, TAP-Pib2 (S. cerevisiae) (assay: affinity purification with mass spectrometry; TAP-Pib2 immunoprecipitated with rabbit IgG on M270 epoxy Dynabeads from yeast lysate; Lysis150 buffer (50 mM Tris-HCl pH 8, 150 mM NaCl, 10% glycerol, 1 mM DTT, 0.2% Triton X-100), with or without 60 mM glutamine; LC-MS/MS).

Molecule	binding
Tor1 (endogenous) (from UniProt P35169 1-2470)	binds
Tor2 (from UniProt P32600 1-2474)	binds
Kog1 (from UniProt P38873 1-1557)	binds
Lst8 (protein, UniProt P41318 1-303) MSVILVSAGYDHTIRFWEALTGVCSRTIQHSDSQVNRLEITNDKKLLATAGHQNVRLYDIRTTNPNPVASFEGHRGNVTSVSFQQDNRWMVTSSEDGTIKVWDVRSPSIPRNYKHNAPVNEVVIHPNQGELISCDRDGNIRIWDLGENQCTHQLTPEDDTSLQSLSMASDGSMLAAANTKGNCYVWEMPNHTDASHLKPVTKFRAHSTYITRILLSSDVKHLATCSADHTARVWSIDDDFKLETTLDGHQRWVWDCAFSADSAYLVTASSDHYVRLWDLSTREIVRQYGGHHKGAVCVALNDV	binds
Tco89 (protein, UniProt Q08921 1-799) MVHRGRTLKSDTDVTSLNASTVSHQSKPFRQFSTRSRAKSNASFKGLRRVLTHDGTLDNDYFNKHNVSQKCKSSDALFRKRTISGLNMTALTRVKSNQGKRSASFHSPVHNTLLSPKNSSHSNTGTAGFGLKPRRSKSTQSVLSLRDAQESKKSESTTDEEVECFSEDNIEDGKVNNDKVIAEHVMPEEKKNVQQLNQNELQSPDSIDEQEEDKSGTDGKENHRAVSLPLPHLSSNNYFGESSHSIEHQKDGETSPSSIETKLNATSVINEEGQSKVTKEADIDDLSSHSQNLRASLVKAGDNISEAPYDKEKKILDVGNTLAAHKSNQKPSHSDEQFDQEDHIDAPRSNSSRKSDSSFMSLRRQSSKQHKLLNEEEDLIKPDDISSAGTKDIEGHSLLENYAPNMILSQSTGVERRFENSSSIQNSLGNEIHDSGEHMASGDTFNELDDGKLRKSKKNGGRSQLGQNIPNSQSTFPTIANIGSKDNNVPQHNFSTSISSLTNNLRRAAPESFHGSRMNNIFHKKGNQNLLLRSNDLNKNSAAPASPLSNEHITSSTNSGSDANRQSNSGAKFNSFAQFLKSDGIDAESRTQRKLWLQRENSIMDLSSQNDGSDSIFMAGNIDAKREFERISHEYSNVKRFYNPLDEALLRVQPIITGNANNIRKKSHNDAQSIAHSSSDTDHKDEDDLLFTNYDKKFDDLYPHLASAKIQAVLSGIWKSESYLFNKDVNPINKNRTTSTNHSVGHTASQNARNLLRGPMGSSTTLHHQRVINSLQPTTRAVNRRMENVGYMHTQPQQR	binds
